The record followed here is the supplement of paper PMC11659162.

The other results are listed elsewhere or left out. The data scatter; read single values as rough.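 The cells are a human neuroglioma line carrying a green fluorescent autophagy reporter.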

The test system of this assay is H4 GFP-LC3. The experiment in a line: cell viability (scaled to control) (fraction of control); higher = more viable cells. The note with it: 24 h.
The compound `NC1(C(=O)O)CCCC1` (5 µM) returned a cell viability of 1.02. Then `N[C@H](CO)C(=O)O` (5 µM), with 1.06; and `Clc1ccc2nsnc2c1NC1=NCCN1` (5 µM), with 0.711. Then `O=C(NC1CCN(Cc2ccccc2)CC1)c1ccc(I)cc1` (5 µM), with 1.12. Then `N[C@@H](COP(=O)(O)O)C(=O)O` (5 µM), with 1.13; and `CN1CCN(CCCN2c3ccccc3Sc3ccc(C(F)(F)F)cc32)CC1` (5 µM), with 1.36; and `CC[C@H](C)[C@@H]1NC(=O)[C@H](Cc2ccc(O)cc2)NC(=O)[C@@H](N)CSSC[C@@H](C(=O)N2CCC[C@H]2C(=O)N[C@@H](CC(C)C)C(=O)NCC(N)=O)NC(=O)[C@H](CC(N)=O)NC(=O)[C@H](CCC(N)=O)NC1=O` (5 µM), with 0.866.

`CC[C@](N)(CCC(=O)O)C(=O)O` (5 µM) displayed a cell viability of 1.04. On to `CN1CCN(c2nc3cc(C(F)(F)F)ccc3n3cccc23)CC1` (5 µM), for which the cell viability was determined as 0.993. Then `C[C@]12CCC(=O)C=C1CC[C@@H]1[C@@H]2[C@@H](O)C[C@@]2(C)[C@H]1CC[C@]2(O)C(=O)CO` (5 µM), with 0.881. For the compound `CNCCC(Oc1ccc(C(F)(F)F)cc1)c1ccccc1` (configuration not stated) (5 µM), the cell viability was determined as 0.907. `c1ccc2c(CC3=NCCN3)cccc2c1` (5 µM) gave a cell viability of 0.827. With `Nc1c2c(nc3ccccc13)CCCC2O` (configuration not stated) (5 µM) the figure was 1.1; with `CS(=O)(=O)Nc1c(O)ccc2c1CCCC2C1=NCCN1` (configuration not stated) (5 µM), 1.05; with `CCC(=O)N1CCN(c2ccc(-n3c(=O)ccc4cnc5ccc(-c6cnc7ccccc7c6)cc5c43)cc2C(F)(F)F)CC1` (0.3 µM), 0.789. Then `O=C(COc1ccc(C(=O)c2ccccc2)cc1)NC1CCN(Cc2ccccc2)CC1` (5 µM), with 1.06; and `Cc1nc2c([nH]1)c(=O)n(C)c(=O)n2Cc1ccco1` (5 µM), with 0.965. Then `Nc1nc(NCCc2ccc(O)cc2)nc2nc(-c3ccco3)nn12` (5 µM), with 1.12. `C[C@H](NC[C@H](O)CP(=O)(O)Cc1ccccc1)c1ccc(Cl)c(Cl)c1` (5 µM): the cell viability was 0.885. With `c1ccc(CN2CCC3(CCc4ccccc43)CC2)cc1` (5 µM) the figure was 1.19; with `CC(C)NCC(O)c1ccc(NS(C)(=O)=O)cc1` (configuration not stated) (5 µM), 0.962; with `CCN(CC)CC1CCCCN1CC(=O)N1c2ccccc2C(=O)Nc2cccnc21` (configuration not stated) (5 µM), 1.17.

Regarding `CC[C@H](C)[C@H](NC(=O)[C@H](CCCN=C(N)N)NC(=O)[C@H](CCCN=C(N)N)NC(=O)[C@H](CC(C)C)NC(=O)[C@H](Cc1ccccc1)NC(=O)CNC(=O)CNC(=O)[C@@H](N)Cc1ccc(O)cc1)C(=O)N[C@@H](CCCN=C(N)N)C(=O)N1CCC[C@H]1C(=O)O` (5 µM), the cell viability was 0.951. Then `CC[N+]1(C)C2CCC1CC(OC(=O)C1CCC(C(=O)OC3CC4CCC(C3)[N+]4(C)CC)(c3ccccc3)c3ccccc31)C2` (configuration not stated) (5 µM), with 0.979; and `CC[C@@H]1C(=O)OC[C@@H]1Cc1cncn1C` (5 µM), with 1.06. Then `N=C(N)NCCC[C@H](NC(=O)[C@H](Cc1ccccc1)NC(=O)[C@@H]1CCCN1C(=O)[C@H](CO)NC(=O)[C@H](Cc1ccccc1)NC(=O)CNC(=O)[C@@H]1CCCN1C(=O)[C@@H]1CCCN1C(=O)[C@@H](N)CCCNC(=N)N)C(=O)O` (5 µM), with 0.95; and `c1ccc(N2CCN(CCCOc3ccc4c(c3)OCO4)CC2)cc1` (5 µM), with 1.02.

Compound `CC1c2ccccc2CN1CC1=NCCN1` (configuration not stated) (5 µM) had a cell viability of 1.

In turn, `CN1CCC(=C2c3ccccc3C=Cc3ccccc32)CC1` (5 µM) registered a cell viability of 0.971. In turn, `N[C@H]1CCN(O)C1=O` (5 µM) returned a cell viability of 1.24.

Compound `COC(=O)Nc1ccc2[nH]cc(CCNC(C)=O)c2c1` (5 µM) showed a cell viability of 0.981. As for `CC(=O)[C@H]1CC[C@H]2[C@@H]3CCC4=CC(=O)CC[C@]4(C)[C@H]3CC[C@]12C` (5 µM), the cell viability worked out at 1.15.

`N=C(CC(O)COc1ccccc1-c1ccccc1)N1CCCCC1` (configuration not stated) (5 µM) gave a cell viability of 0.839. Consider `C=CCn1c(=O)c2c(nc(-c3ccc(S(=O)(=O)O)cc3)n2C)n(C)c1=O` (5 µM), for which the cell viability turned out to be 1.15. With `CN(C)CCCN1c2ccccc2Sc2ccc(Cl)cc21` (5 µM) the figure was 1.14. With `CN(C)CCCc1cc(C(=O)Nc2ccc(-c3ccncc3)cc2)ccc1O` (5 µM) the figure was 0.789; with `O=C(O)[C@H]1C[C@H](C(=O)O)N1` (5 µM), 1.21.
